Article PMC12749359, “Chromosome compartment assembly is essential for subtelomeric gene silencing in trypanosomes” (Nature Communications, 2025)
Like-named read-outs stand apart in the source and are kept apart here. These are yes or no findings as the source states them, for the method shown. In cells and extracts the contact can be indirect. A yes stands for co-enrichment or nearness to the bait. Other partners may have been found. For part of these data: Tags and fused reporters may be left off the sequences shown.

Protein sequences, listed by entry. Tags and fused reporters are not part of them. Lines headed by an entry give the natural chain unless they say otherwise; changes in a name come on top.
UniProt Q385E2: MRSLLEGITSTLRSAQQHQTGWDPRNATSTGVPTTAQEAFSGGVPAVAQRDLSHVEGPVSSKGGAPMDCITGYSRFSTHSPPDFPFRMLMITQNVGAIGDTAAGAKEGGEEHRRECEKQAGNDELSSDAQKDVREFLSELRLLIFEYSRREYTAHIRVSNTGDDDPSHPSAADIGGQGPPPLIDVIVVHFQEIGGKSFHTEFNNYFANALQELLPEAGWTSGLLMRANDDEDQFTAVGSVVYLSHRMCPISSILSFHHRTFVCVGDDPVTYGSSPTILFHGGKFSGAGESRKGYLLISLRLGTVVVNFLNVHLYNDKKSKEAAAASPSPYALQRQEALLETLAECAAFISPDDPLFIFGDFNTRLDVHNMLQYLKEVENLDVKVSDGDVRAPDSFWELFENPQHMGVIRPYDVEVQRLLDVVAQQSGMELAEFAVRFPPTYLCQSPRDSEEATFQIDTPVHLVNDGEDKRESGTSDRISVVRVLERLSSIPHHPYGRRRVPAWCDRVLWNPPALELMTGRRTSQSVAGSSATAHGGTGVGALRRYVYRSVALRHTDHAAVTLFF
UniProt Q4GZF2: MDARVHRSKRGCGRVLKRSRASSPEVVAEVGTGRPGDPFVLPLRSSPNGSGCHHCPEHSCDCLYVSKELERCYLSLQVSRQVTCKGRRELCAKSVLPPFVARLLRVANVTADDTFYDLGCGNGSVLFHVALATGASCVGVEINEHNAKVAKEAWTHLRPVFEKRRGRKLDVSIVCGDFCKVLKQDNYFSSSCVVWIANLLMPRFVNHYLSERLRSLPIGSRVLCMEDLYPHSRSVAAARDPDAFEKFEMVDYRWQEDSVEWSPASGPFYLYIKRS

B1: TRF (protein, UniProt Q4VHG6 1-382)
chain: MYCHAGVPSTSPSPTDFSEVHKILCGHIKQGNNFSVAAAVALEPLHGSSEFWRTCGYRSGIVSALLASSLGVQRETDQLSHLEPMTVADVYAMFRHVVDENAHLRQIIARLESGECDPDDGSGGITSSAERLRSLISEGYDALTGRSSPCMGEDDCGQTPGKWKTCSSGAAGTKRRRDSPEVTERAYVRPESPVPASETLSPAANSGDDTVDEAEQNNALDVLEQLPALPGTTRTVSSFDAVGEMVNRGAGGPSLHPTNPSEFRVGSERGSTIETHSSSELSNFANVGVGTSSGKQKRYKFSASEDEAIIKGLARFTKGQQRFQQIYYAYRSVWHPARTVSQLYDHWRGTLRYKVIQQQGYRGKNSVAARSPEKASNMENNE
B2: histone acetyltransferase (HAT1) (enzyme, UniProt Q8I9K8 1-466)
chain: MVMFEVRQKVYATLHETFHAAIIQEVAHDAHTGQLLYYVHYVEQDSRMDRWLPGSALRERRQGRQADKQQVSKPTGCGITTRGQSRLVAEQEESGSNGATAGSAAKRGATPNCDKVTTTRTRKESSFFYRPKNVQRICMGPYEVETWYFSPYHLARPQVQQGFKQNAEYFTGDMELQLRQDSRDNALRSSVAFTSFVLHICPFCLQPFSEHEDVLRHVRLVCSRFPPGNEIYRDPIRNLTVVEIDGVAEPTFCEHLALLSKLFLDHKALDHDMTPFLFYVLCSIQPHGLEVLGYFSKEKTTPEMYNLSCILVLPQFQSRGIGRFLIELSYELSRREGKIGSPEKPLSDLGEKLYLGYWGDTIVSTLARAIEESHCVTLDYLVQATFMSEADVMRTLQYLKLIDGTQIVVSEESIERCLSKRVQRERSGQNYIFYPHLLSWSPHMYNEVVEQDVAPPVYDLRRAEKV

How the values were obtained:
[1] = molecular target: phosphatidylinositol phosphate 5-phosphatase, V5-tagged (T. brucei) (UniProt Q385E2); assay: affinity purification with mass spectrometry; anti-V5 mAb on protein G magnetic beads, lysate of DSS cross-linked T. brucei bloodstream forms expressing PIP5Pase-V5, wash with 300 mM NaCl, 0.1% NP40; proteins found in the immunoprecipitate (enrichment against non-tagged cells; network of direct and counterpart cross-links)
[2] = molecular target: phosphatidylinositol phosphate 5-phosphatase, V5-tagged (T. brucei) (UniProt Q385E2); assay: as above; remark: listed apart in the source

| Molecule | binding [1] | binding [2] |
| --- | --- | --- |
| histone methyltransferase DOT1B (from UniProt Q4GZF2 1-275) (enzyme) | binds |  |
| B1 |  | binds |
| B2 |  | binds |
